Assay results taken from patent US20090232853A1, “TREATMENT OF LAMINITIS” (priority 2005, published 2009).

Tests used:
ponies = test: effect of dietary fructan carbohydrates on normal and laminitic ponies; type: in vivo
Description: Eleven adult, native breed ponies were used in the diet study; 5 normals and 6 predisposed to laminitis (asymptomatic at the time of the study). A basal hay diet was fed for 2 weeks, prior to the inclusion of inulin (sourced from chicory root; 3 g/kg body weight per day), fed in 3 equal feeds. The daily forage ration also included ⅔ hay, by weight, and ⅓ Readigrass® (to act as a source of amino acids). Fecal and blood samples were taken during both diets to measure amine concentration (by HPLC and LC-MS, respectively) and fecal pH.

equine cecal contents = test: in vitro model of equine hindgut, carbohydrate overload: pH and amine production

inulin was tested, and the “faecal pH” value (ponies; 24 hours after beginning of inulin diet (3 g/kg per day), from mean 6.9±0.1 on basal diet, p<0.05) was 6.2±0.1, the “plasma concentrations of the vasoactive amines” value (ponies; inulin diet, FIG. 13, LC-MS) was “increased” and the plasma phenylethylamine concentration (ponies; inulin diet, Wilcoxon signed rank test P=0.034) was “significant increase”. For the same substance, the “concentrations of the caecal-derived amines phenylethylamine, isoamylamine, putriscine and cadaverine” value (equine cecal contents; end of 24 hour incubation, carbohydrate 1 g/100 mL, compared to control, HPLC) was “significantly greater concentrations” and the “pH in the model system” value (equine cecal contents; incubated 24 h with carbohydrate 1 g/100 mL, compared with control without added carbohydrate) was “fell significantly”.
